Source: PubChem BioAssay AID2685 (National Center for Advancing Translational Sciences (NCATS), 2010)
This is one part of the list. The main result of the screen is listed elsewhere. These columns were measured beside it and carry no call. Most of these compounds were active or inconclusive in the main read-out, so they are no random draw. Words in brackets tell the shape of the fitted curve; partial curves, single points and poor fits give uncertain potencies.

Test: qHTS Assay for Lipid Storage Modulators in Drosophila S3 Cells;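 as to cell number change: cells counted by Cell Tracker Red CMTPX staining in the red channel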
Details: BODIPY lipid droplet fluorescence, 18-24 h; for cell number change: measured here: cell count max response, cells fed with added oleic acid
Method in brief: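 Drosophila S3 cells got compounds at several concentrations plus oleic acid (400 uM solution). Laser-scanning cytometry with 488 nm excitation read lipid droplets at 500-530 nm and cells at 575-640 nm. Percent activity was relative to 20 uM Triacsin C.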

[1] = measured here: lipid fluorescence (Fed channel) AC50, cells fed with added oleic acid
[2] = measured here: cell number channel AC50, cells fed with added oleic acid

SMILES	cell number change [%]	AC50 [1]	AC50 [2]
CC(C)c1cc(CNC(=O)CCc2nnc(CCCCc3ccccc3)o2)on1	-18.2	0.0058 µM [falling, full curve, poor fit]	–
CCOCCCNCc1ccc(OC)cc1	-35.8	18.4 µM [falling, partial curve]	2.31 µM [falling, full curve]
CN(C)S(=O)(=O)c1ccc(NC(=O)N2CCOCC2)cc1	-19.7	29.1 µM [falling, single point]	–
O=C(Cc1ccccc1)Nc1cc(Cl)ccc1Sc1ccccc1	22.3	20.6 µM [rising, partial curve]	–
COCCn1c(=S)[nH]c2cc(C(=O)NCCc3ccc(OC)c(OC)c3)ccc2c1=O	24.4	–	–
COC(=O)c1cn(C(=O)c2cc(OC)cc(OC)c2)c2ccccc12	6.76	–	–
CCOC(=O)c1ccc(NC(=O)CN2C(=O)CSC(C)C2=O)cc1 (stereo not given)	5.14	16.4 µM [rising, partial curve, poor fit]	–
Nc1ccc(Nc2nc3ccccc3[nH]2)cc1	-45.8	–	16.4 µM [falling, single point]
CS(=O)(=O)N(CC(=O)O)Cc1cccc(CN(CC(=O)O)S(C)(=O)=O)c1	0.299	32.6 µM [falling, single point]	–
CCC1CCC(C(=O)NC(C(=O)NCCN2CCOCC2)C(C)C)CC1 (stereo not given)	21.6	–	–
CCOc1ccccc1CNC(=O)C1CCCN(c2ncnc3c2nc2n3CCCCC2)C1 (stereo not given)	58.8	29.1 µM [falling, partial curve]	–
CCOc1ccc2nc(N(Cc3ccccc3)C(=O)CCNC(C)=O)sc2c1	-12.7	3.66 µM [rising, single point]	–
COc1cccc2cc(-c3ccnc(N)n3)oc12	–	6.51 µM [rising, partial curve, poor fit]	6.51 µM [rising, partial curve, poor fit]
CC(C)(C)C(=O)NC(=S)Nc1ccccc1C(N)=O	7.86	20.6 µM [rising, single point]	–
CCOC(=O)c1sc2nc(C)nc(NCc3ccc(F)cc3)c2c1C	–	3.16 µM [rising, partial curve]	–
Cc1cc(F)ccc1S(=O)(=O)Nc1ccccc1C(=O)Nc1ncn[nH]1	2.73	6.51 µM [rising, single point]	–
Cc1ccc(NS(=O)(=O)c2cc3[nH]c(=O)c(=O)[nH]c3cc2C)c(C)c1	2.88	–	–
Cc1ccc(NCc2nnc(SCCN3CCCCC3)n2CC2CCCO2)cc1Cl (stereo not given)	15.4	0.13 µM [falling, full curve, poor fit]	–
Cc1cc(=O)[nH]c(N/N=C/c2c(C)oc3ccccc23)n1	-1.5	0.461 µM [rising, full curve]	–
COc1cc2c(cc1NC(=O)c1cccc(Br)c1)CCCC2	-16.9	–	–
C(=Nc1cccc2c(N=Cc3ccco3)cccc12)c1ccco1	23.6	–	1.84 µM [rising, partial curve]

Some of these compounds in order of SMILES length, rising:
SMILES	cell number change [%]	AC50 [1]	AC50 [2]
CCOCCCNCc1ccc(OC)cc1	-35.8	18.4 µM [falling, partial curve]	2.31 µM [falling, full curve]
CN(C)S(=O)(=O)c1ccc(NC(=O)N2CCOCC2)cc1	-19.7	29.1 µM [falling, single point]	–
Cc1ccc(NCc2nnc(SCCN3CCCCC3)n2CC2CCCO2)cc1Cl (stereo not given)	15.4	0.13 µM [falling, full curve, poor fit]	–
COCCn1c(=S)[nH]c2cc(C(=O)NCCc3ccc(OC)c(OC)c3)ccc2c1=O	24.4	–	–

Part of the list above, field by field.
COC(=O)c1cn(C(=O)c2cc(OC)cc(OC)c2)c2ccccc12
  cell number change [%]: 6.76
CCOC(=O)c1ccc(NC(=O)CN2C(=O)CSC(C)C2=O)cc1 (stereo not given)
  cell number change [%]: 5.14; AC50 [1]: 16.4 µM [rising, partial curve, poor fit]

Next part

SMILES	cell number change [%]	AC50 [1]	AC50 [2]
COc1ccc(CC(=O)NC2=NCCS2)cc1	–	29.1 µM [rising, single point]	–
CC(C)OP(=O)(c1ccc(N(C)C)cc1)C(O)c1ccccc1 (stereo not given)	-15.6	–	–
Cc1ccccc1Nc1nnc(SCC(=O)c2cc3ccccc3o2)s1	–	1.46 µM [rising, partial curve]	–
CCCC(C)NC(=O)c1ccccc1SC (stereo not given)	-11.8	0.259 µM [falling, full curve, poor fit]	–
C=CCN(CC=C)C(=O)CN1C(=O)NC(Cc2c[nH]c3ccccc23)C1=O (stereo not given)	112	9.2 µM [rising, partial curve]	29.1 µM [rising, single point]
O=C(COC(=O)Cc1ccccc1F)Nc1ccccc1[N+](=O)[O-]	6.63	2.91 µM [falling, partial curve]	2.31 µM [falling, partial curve]
Cc1nnc(SCC(=O)NC(C)(C)C)n1C1CCCCC1	8.31	0.092 µM [falling, full curve]	–
O=C(NC1CCN(Cc2ccccc2)CC1)c1ccc(N2CC3CC(C2)c2cccc(=O)n2C3)c([N+](=O)[O-])c1 (stereo not given)	4.93	–	–
Cc1ncccc1C(=O)N1CCCC(C(=O)c2ccc3c4c(cccc24)CC3)C1 (stereo not given)	-45.7	16.4 µM [falling, partial curve]	20.6 µM [falling, single point]
CCc1cccc(NC(=O)C2CCCN(S(=O)(=O)c3c(C)[nH]c(=O)[nH]c3=O)C2)c1 (stereo not given)	1.47	0.146 µM [falling, partial curve, poor fit]	–
CCc1ccccc1NC(=S)N(Cc1cccc(C)c1)c1cccnc1	–	–	2.91 µM [rising, single point]
CC(O)Cc1nsc(NC(=O)c2ccc(Br)o2)n1 (stereo not given)	-40.5	16.4 µM [falling, single point]	–
Cc1ccc(SC2=C(C(=O)O)CCCC2)cc1	8.06	–	–
Cc1ccc(Cn2ccc(NC(=O)c3cc(C4CC4)on3)n2)cc1	-4.13	8.2 µM [rising, partial curve, poor fit]	–
O=C(COC(=O)c1cc2ccccc2oc1=O)c1cccc([N+](=O)[O-])c1	3.25	0.82 µM [falling, partial curve]	–
CC(=O)/C(=N\Nc1ccccc1)Sc1cccc2cccnc12	13.8	1.3 µM [rising, full curve, poor fit]	–
Cc1ccc(C)n1-c1nnc(N2CCC(C(=O)NCCCN3CC(C)CC(C)C3)CC2)s1 (stereo not given)	–	6.51 µM [falling, single point]	–
O=C(Cc1ccccc1)NNC(=O)c1cnccn1	-24.1	1.46 µM [falling, full curve, poor fit]	1.3 µM [falling, full curve, poor fit]
CN(C)/C=N/NC(=O)c1ccc(Cl)cc1	-38.3	29.1 µM [falling, single point]	29.1 µM [falling, single point]
COc1ccc(N=C2SC(CC(=O)Nc3ccccc3OC)C(=O)N2Cc2ccco2)cc1 (stereo not given)	167	0.164 µM [rising, full curve, poor fit]	13 µM [rising, partial curve]
Cc1cc(C(=O)Oc2ccccc2C(=O)O)c(C)o1	-0.325	1.3 µM [falling, full curve]	–

SMILES	cell number change [%]	AC50 [1]	AC50 [2]
COc1ccc(CCN2C(=O)CC(N3CCN(S(=O)(=O)c4ccccc4)CC3)C2=O)cc1OC (stereo not given)	15.2	0.00411 µM [rising, full curve, poor fit]	0.461 µM [rising, partial curve]
CC12CCC(=O)N1C(C(=O)Nc1cc(S(=O)(=O)N3CCCCCC3)ccc1OCC(F)(F)F)CS2 (stereo not given)	-37.8	2.91 µM [falling, single point]	8.2 µM [falling, partial curve, poor fit]
CCc1ccccc1N(C(=O)c1snc(C(N)=O)c1N)C(C(=O)NCC1CCCO1)c1ccc(OC)c(OC)c1 (stereo not given)	-2.82	–	–
CCN1C(=O)/C(=C\N(C)C)S/C1=N\S(=O)(=O)c1ccc(C)cc1	1.97	2.06 µM [rising, single point]	0.291 µM [rising, partial curve, poor fit]
Cn1c(SCc2cc(=O)n3cc(Br)ccc3n2)nnc1C1COc2ccccc2O1 (stereo not given)	27.1	29.1 µM [rising, single point]	2.59 µM [rising, single point]
NC(=S)N/N=C/c1ncc(C(F)(F)F)cc1Cl	-32.7	20.6 µM [falling, single point]	16.4 µM [falling, single point]
Cc1ccc(CC(=O)NCCN2CCOCC2)cc1	3.02	–	–
C=CCNc1nc(N2CCCC2)nc2ccccc12	–	0.82 µM [rising, full curve]	0.184 µM [rising, full curve]
CCOc1ccccc1N(C(=O)c1snc(C(N)=O)c1N)C(C(=O)NC1CCCC1)c1ccco1 (stereo not given)	4.04	3.26 µM [rising, single point]	–
O=C(CN1CCCc2ccccc21)NCCc1ccc(Cl)cc1	30.9	0.326 µM [rising, full curve]	16.4 µM [rising, single point]
COc1ccc(CNC(=O)CN(C(=O)c2csnn2)c2cnc3ccccc3c2)cc1	11.5	–	1.3 µM [rising, partial curve]
OC(CCN1CCCCC1)(c1ccccc1)C1CCCCC1 (stereo not given)	-5.84	0.103 µM [falling, full curve, poor fit]	–
COc1ccccc1NC(=O)COC(=O)CCS(=O)(=O)c1ccc(C)cc1	–	29.1 µM [falling, single point]	–
COCCC(=O)N1CCC(Oc2ccc(C(=O)N3C[C@@H](C)O[C@@H](C)C3)cc2)CC1	-3.59	–	–
C=CCNC(=S)N1CCN(CCN=Cc2c(C)[nH]n(-c3ccc([N+](=O)[O-])cc3)c2=O)CC1	32.2	–	1.03 µM [rising, full curve, poor fit]
O=C(COC(=O)CNC(=O)c1ccc(Cl)cc1Cl)NC(=O)NCc1ccccc1	-6.43	–	–
CCCn1c(=O)c(C(=O)Nc2ncccc2C)c(O)c2ccccc21	-7.63	–	4.61 µM [rising, partial curve, poor fit]
Cc1cccc(NC(=O)Nc2nnc(N3CCCCC3C)s2)c1C (stereo not given)	-9.59	–	–
COc1ccccc1NC(=O)Nc1ccc(Cc2ccncc2)cc1	-46.2	–	–
